Only a part is listed here, and it is no random draw. For part of these data: At the low end of the ranking, values are background and their order means little. Some of the results follow. For part of these data: The source does not settle which construct or isoform was used.

Chains of the proteins cited; added tags and fusions are not shown. Lines headed by an entry give the natural chain unless they say otherwise; changes in a name come on top.
UniProt P32519: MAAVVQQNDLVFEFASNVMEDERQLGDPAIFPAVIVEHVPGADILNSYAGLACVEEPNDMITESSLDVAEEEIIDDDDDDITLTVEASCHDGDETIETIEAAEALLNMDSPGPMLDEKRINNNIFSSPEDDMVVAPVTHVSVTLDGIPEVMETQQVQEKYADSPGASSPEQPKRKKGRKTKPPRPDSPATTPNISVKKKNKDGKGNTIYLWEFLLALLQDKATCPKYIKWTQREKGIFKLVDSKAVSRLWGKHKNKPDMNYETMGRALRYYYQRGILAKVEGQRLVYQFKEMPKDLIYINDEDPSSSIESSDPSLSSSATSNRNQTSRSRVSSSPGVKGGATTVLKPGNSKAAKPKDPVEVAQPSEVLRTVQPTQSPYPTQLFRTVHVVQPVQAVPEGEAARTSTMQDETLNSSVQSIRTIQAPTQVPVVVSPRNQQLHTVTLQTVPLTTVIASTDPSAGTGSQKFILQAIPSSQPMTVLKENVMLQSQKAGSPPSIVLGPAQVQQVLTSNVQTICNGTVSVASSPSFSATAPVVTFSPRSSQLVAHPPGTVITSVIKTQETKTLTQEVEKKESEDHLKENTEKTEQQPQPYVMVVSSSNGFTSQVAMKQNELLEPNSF
UniProt P50549: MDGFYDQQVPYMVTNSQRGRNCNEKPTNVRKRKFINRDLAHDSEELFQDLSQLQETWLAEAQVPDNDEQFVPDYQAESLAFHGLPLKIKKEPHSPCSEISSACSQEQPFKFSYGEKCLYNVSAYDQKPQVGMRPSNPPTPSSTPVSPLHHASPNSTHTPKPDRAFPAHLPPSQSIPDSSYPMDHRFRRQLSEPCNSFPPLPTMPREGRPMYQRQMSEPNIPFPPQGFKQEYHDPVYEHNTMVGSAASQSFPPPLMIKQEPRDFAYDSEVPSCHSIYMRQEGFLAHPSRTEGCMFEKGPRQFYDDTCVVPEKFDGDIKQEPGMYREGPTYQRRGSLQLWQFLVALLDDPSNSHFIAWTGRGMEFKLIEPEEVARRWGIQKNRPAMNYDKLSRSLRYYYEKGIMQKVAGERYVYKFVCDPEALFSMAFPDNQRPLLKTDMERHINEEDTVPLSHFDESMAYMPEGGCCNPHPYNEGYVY

For the first assay, the target named is ELF1 (UniProt P32519). Nature of the assay: DAPPL (digital affinity profiling via proximity ligation, sequencing). As to conditions: 10 mM Tris-HCl pH 7.5, 50 mM NaCl, 1 mM DTT, 4% glycerol, room temperature, 30 min; GST-TFs on glutathione beads, 16-mer random dsDNA library, 0.1% …; high values mean tight binding; double strand, one strand shown; scale: fold enrichment (6-mer frequency, TF over GST control).
TGTGTT showed a binding signal of 1.03.

CATCCG came in with a binding signal of 1.86.

As to TTCTGC, the binding signal worked out at 1.52.

The sequence GGTCCT yielded a binding signal of 1.06.

Turning to TTCGAA, the binding signal is 1.28.

As for GAAATA, the binding signal is 1.45.

CTTTTG gave a binding signal of 1.34.

For the sequence GCTCGC, the binding signal was 1.42.

CACTTG: the binding signal was 1.33.

Regarding TCTCCG, the binding signal came out at 1.6.

The sequence CTCAGA returned a binding signal of 1.14.

In the case of ATGTAT, the binding signal is 1.3.

In the case of TTCTCC, the binding signal amounted to 1.56.

TGACTC registered a binding signal of 1.36.

Turning to GCGCTC, the binding signal worked out at 1.12.

A further assay deals with T1, ETV4 (UniProt P43268).
T1 sequence: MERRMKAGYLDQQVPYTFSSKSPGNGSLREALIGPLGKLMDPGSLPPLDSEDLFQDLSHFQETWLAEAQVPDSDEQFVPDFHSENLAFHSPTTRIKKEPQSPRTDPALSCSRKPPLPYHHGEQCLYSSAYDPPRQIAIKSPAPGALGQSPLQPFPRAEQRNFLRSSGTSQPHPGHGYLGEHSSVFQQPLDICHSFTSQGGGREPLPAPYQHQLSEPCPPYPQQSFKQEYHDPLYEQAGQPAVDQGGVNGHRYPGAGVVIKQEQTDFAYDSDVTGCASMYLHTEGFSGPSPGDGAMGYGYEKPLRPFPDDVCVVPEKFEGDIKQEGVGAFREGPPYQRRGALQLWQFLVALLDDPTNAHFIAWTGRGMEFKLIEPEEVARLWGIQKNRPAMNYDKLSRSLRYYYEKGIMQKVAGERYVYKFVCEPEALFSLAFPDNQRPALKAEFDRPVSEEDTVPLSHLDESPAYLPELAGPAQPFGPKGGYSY
The description is as above. As to conditions: 10 mM Tris-HCl pH 7.5, 50 mM NaCl, 1 mM DTT, 4% glycerol, room temperature, 30 min; GST-TFs on glutathione beads, 16-mer random dsDNA library, 0.1% …; high values mean tight binding; double strand, one strand shown; scale: fold enrichment (6-mer frequency, TF over GST control).
CCTATG registered a binding signal of 1.44.

TGTGTT showed a binding signal of 1.04.

In turn, TATTGT yielded a binding signal of 1.28.

With CATCCG, the binding signal was determined as 2.29.

GCCCTT registered a binding signal of 1.25.

Sequence TCGACC displayed a binding signal of 1.3.

For TTCTGC, the binding signal came out at 1.45.

Sequence GGTCCT had a binding signal of 0.956.

In turn, CGCCCT returned a binding signal of 1.48.

ATCCGC gave a binding signal of 1.81.

As to AATTTA, the binding signal was 1.21.

The sequence TTCGAA registered a binding signal of 1.12.

As to GAAATA, the binding signal was 1.47.

As for CTTTTG, the binding signal stood at 1.41.

Turning to GCGACT, the binding signal came to 1.29.

For TCAACC, the binding signal stood at 1.11.

Turning to GTAACA, the binding signal came to 1.1.

The sequence GCTCGC showed a binding signal of 1.32.

CAATTG: the binding signal was 1.25.

In turn, CTTCAG yielded a binding signal of 1.26.

Consider TCTGTC, for which the binding signal was 1.18.

As for CACTTG, the binding signal was determined as 1.38.

As to TTATGT, the binding signal was 1.22.

Take TCTCCG: the binding signal was 1.56.

The sequence TCTTGT yielded a binding signal of 1.72.

In the case of CTCAGA, the binding signal is 1.14.

The sequence ATGTAT had a binding signal of 1.3.

For the sequence TTCTCC, the binding signal amounted to 1.59.

CTAAGT had a binding signal of 1.18.

Turning to GCATCC, the binding signal was 1.64.

TGACTC: the binding signal came out at 1.34.

TCTAAA gave a binding signal of 1.18.

In turn, AATGGG yielded a binding signal of 1.15.

TTTACA displayed a binding signal of 1.24.

Regarding CTACTC, the binding signal amounted to 1.4.

Take TTGCGT: the binding signal is 1.09.

Sequence CTTGCA came in with a binding signal of 1.37.

Regarding CTTTTT, the binding signal amounted to 1.33.

GCGCTC came in with a binding signal of 1.29.

Another assay deals with ETV1 (UniProt P50549). The assay is described as above. As to conditions: 10 mM Tris-HCl pH 7.5, 50 mM NaCl, 1 mM DTT, 4% glycerol, room temperature, 30 min; GST-TFs on glutathione beads, 16-mer random dsDNA library, 0.1% …; high values mean tight binding; double strand, one strand shown; scale: fold enrichment (6-mer frequency, TF over GST control).
Turning to TGTGTT, the binding signal was 0.965.

For CATCCG, the binding signal was 2.19.

In the case of TTCTGC, the binding signal stood at 1.45.

Sequence GGTCCT gave a binding signal of 0.93.

Consider TTCGAA, for which the binding signal was determined as 1.1.

In turn, GAAATA returned a binding signal of 1.54.

Consider CTTTTG, for which the binding signal turned out to be 1.3.

In turn, GCTCGC displayed a binding signal of 1.37.

As for CACTTG, the binding signal was 1.36.

TCTCCG had a binding signal of 1.48.

Consider CTCAGA, for which the binding signal came out at 1.1.

For the sequence ATGTAT, the binding signal is 1.42.

Sequence TTCTCC gave a binding signal of 1.45.

For TGACTC, the binding signal was 1.33.

Sequence GCGCTC yielded a binding signal of 0.994.

The target of the next assay is T2, ERF (UniProt P50548).
T2 sequence: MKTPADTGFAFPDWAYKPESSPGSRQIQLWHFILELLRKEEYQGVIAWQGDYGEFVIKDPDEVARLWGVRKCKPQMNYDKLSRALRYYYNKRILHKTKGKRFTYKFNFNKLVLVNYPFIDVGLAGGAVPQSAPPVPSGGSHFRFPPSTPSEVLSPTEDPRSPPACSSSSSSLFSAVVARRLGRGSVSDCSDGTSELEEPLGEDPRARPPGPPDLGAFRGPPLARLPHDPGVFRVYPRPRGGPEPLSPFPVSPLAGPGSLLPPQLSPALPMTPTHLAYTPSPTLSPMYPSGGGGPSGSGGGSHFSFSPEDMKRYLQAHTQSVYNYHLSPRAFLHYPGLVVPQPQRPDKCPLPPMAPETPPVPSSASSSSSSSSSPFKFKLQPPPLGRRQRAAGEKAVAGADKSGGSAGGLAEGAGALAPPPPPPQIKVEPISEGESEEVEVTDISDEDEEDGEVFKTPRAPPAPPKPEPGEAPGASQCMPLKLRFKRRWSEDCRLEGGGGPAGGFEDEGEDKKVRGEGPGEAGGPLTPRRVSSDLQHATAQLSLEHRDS
The assay is described as above. As to conditions: 10 mM Tris-HCl pH 7.5, 50 mM NaCl, 1 mM DTT, 4% glycerol, room temperature, 30 min; GST-TFs on glutathione beads, 16-mer random dsDNA library, 0.1% …; high values mean tight binding; double strand, one strand shown; scale: fold enrichment (6-mer frequency, TF over GST control).
As for CCTATG, the binding signal amounted to 1.11.

On to TATTGT, for which the binding signal is 1.44.

Sequence GCCCTT displayed a binding signal of 1.11.

With TCGACC, the binding signal was 1.31.

CGCCCT: the binding signal stood at 1.37.

For the sequence ATCCGC, the binding signal was found to be 1.71.

AATTTA came in with a binding signal of 1.27.

GCGACT returned a binding signal of 1.43.

The sequence TCAACC registered a binding signal of 1.3.

Regarding GTAACA, the binding signal was 1.1.

Sequence CAATTG yielded a binding signal of 1.29.

Sequence CTTCAG registered a binding signal of 1.27.

Consider TCTGTC, for which the binding signal stood at 1.31.

Consider TTATGT, for which the binding signal was found to be 1.29.

As to TCTTGT, the binding signal is 1.68.

Sequence CTAAGT yielded a binding signal of 1.13.

As to GCATCC, the binding signal turned out to be 1.43.

Take TCTAAA: the binding signal was determined as 1.17.

Sequence AATGGG registered a binding signal of 1.16.

The sequence TTTACA showed a binding signal of 1.28.

CTACTC gave a binding signal of 1.48.

In the case of TTGCGT, the binding signal was determined as 1.21.

CTTGCA registered a binding signal of 1.39.

Turning to CTTTTT, the binding signal stood at 1.31.

(Values after article PMC7862700.)
